# This is one part of the list. Small differences around the control level are noise.
# Protein sequences, listed by entry. Tags and fused reporters are not part of them. Lines headed by an entry give the natural chain unless they say otherwise; changes in a name come on top.
# UniProt O35737: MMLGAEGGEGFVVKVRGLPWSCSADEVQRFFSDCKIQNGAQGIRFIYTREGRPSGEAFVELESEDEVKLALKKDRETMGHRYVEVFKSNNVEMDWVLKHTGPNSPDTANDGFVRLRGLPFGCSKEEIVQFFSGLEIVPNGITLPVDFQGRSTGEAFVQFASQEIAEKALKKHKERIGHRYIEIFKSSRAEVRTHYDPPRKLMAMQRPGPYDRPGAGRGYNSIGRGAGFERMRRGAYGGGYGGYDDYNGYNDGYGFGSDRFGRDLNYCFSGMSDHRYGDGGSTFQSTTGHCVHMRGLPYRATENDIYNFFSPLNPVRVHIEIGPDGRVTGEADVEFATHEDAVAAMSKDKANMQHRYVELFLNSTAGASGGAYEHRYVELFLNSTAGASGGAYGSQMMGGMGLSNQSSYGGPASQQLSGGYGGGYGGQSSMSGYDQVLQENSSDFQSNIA
# UniProt O70378: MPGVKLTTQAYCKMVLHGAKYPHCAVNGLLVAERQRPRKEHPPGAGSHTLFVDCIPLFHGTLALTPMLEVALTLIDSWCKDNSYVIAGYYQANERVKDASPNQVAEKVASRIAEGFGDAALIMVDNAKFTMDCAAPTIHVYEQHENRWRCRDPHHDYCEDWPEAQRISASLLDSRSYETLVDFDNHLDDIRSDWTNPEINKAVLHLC
# UniProt O88696, whole entry: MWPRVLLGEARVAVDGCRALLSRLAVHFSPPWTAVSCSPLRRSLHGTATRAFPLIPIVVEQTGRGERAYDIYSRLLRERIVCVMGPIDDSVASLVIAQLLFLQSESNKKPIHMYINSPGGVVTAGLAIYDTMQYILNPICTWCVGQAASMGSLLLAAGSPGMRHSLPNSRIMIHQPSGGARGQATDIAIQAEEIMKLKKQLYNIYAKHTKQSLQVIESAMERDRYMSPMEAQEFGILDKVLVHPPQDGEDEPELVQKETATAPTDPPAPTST
# UniProt O54788: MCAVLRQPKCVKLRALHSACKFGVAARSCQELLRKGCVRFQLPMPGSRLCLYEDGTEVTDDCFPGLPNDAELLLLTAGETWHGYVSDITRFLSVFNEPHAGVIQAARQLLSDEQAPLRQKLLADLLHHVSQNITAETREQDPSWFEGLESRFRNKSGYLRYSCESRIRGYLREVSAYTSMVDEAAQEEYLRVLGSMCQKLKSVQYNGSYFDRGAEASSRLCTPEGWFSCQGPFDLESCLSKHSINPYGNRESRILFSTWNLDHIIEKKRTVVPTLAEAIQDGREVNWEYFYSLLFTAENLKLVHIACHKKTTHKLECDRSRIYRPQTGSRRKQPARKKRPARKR
# UniProt O70258: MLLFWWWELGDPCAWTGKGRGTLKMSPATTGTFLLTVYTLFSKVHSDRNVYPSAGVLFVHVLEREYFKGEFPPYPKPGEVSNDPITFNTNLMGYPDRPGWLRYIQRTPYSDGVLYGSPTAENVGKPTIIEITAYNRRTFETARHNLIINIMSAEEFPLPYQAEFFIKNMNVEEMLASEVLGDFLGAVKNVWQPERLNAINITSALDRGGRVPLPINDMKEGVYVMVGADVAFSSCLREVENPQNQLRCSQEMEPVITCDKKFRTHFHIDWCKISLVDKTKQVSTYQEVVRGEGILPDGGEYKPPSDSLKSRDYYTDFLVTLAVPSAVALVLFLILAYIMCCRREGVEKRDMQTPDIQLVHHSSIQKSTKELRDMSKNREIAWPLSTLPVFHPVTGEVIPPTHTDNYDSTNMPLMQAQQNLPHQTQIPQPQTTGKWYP
# UniProt O88738: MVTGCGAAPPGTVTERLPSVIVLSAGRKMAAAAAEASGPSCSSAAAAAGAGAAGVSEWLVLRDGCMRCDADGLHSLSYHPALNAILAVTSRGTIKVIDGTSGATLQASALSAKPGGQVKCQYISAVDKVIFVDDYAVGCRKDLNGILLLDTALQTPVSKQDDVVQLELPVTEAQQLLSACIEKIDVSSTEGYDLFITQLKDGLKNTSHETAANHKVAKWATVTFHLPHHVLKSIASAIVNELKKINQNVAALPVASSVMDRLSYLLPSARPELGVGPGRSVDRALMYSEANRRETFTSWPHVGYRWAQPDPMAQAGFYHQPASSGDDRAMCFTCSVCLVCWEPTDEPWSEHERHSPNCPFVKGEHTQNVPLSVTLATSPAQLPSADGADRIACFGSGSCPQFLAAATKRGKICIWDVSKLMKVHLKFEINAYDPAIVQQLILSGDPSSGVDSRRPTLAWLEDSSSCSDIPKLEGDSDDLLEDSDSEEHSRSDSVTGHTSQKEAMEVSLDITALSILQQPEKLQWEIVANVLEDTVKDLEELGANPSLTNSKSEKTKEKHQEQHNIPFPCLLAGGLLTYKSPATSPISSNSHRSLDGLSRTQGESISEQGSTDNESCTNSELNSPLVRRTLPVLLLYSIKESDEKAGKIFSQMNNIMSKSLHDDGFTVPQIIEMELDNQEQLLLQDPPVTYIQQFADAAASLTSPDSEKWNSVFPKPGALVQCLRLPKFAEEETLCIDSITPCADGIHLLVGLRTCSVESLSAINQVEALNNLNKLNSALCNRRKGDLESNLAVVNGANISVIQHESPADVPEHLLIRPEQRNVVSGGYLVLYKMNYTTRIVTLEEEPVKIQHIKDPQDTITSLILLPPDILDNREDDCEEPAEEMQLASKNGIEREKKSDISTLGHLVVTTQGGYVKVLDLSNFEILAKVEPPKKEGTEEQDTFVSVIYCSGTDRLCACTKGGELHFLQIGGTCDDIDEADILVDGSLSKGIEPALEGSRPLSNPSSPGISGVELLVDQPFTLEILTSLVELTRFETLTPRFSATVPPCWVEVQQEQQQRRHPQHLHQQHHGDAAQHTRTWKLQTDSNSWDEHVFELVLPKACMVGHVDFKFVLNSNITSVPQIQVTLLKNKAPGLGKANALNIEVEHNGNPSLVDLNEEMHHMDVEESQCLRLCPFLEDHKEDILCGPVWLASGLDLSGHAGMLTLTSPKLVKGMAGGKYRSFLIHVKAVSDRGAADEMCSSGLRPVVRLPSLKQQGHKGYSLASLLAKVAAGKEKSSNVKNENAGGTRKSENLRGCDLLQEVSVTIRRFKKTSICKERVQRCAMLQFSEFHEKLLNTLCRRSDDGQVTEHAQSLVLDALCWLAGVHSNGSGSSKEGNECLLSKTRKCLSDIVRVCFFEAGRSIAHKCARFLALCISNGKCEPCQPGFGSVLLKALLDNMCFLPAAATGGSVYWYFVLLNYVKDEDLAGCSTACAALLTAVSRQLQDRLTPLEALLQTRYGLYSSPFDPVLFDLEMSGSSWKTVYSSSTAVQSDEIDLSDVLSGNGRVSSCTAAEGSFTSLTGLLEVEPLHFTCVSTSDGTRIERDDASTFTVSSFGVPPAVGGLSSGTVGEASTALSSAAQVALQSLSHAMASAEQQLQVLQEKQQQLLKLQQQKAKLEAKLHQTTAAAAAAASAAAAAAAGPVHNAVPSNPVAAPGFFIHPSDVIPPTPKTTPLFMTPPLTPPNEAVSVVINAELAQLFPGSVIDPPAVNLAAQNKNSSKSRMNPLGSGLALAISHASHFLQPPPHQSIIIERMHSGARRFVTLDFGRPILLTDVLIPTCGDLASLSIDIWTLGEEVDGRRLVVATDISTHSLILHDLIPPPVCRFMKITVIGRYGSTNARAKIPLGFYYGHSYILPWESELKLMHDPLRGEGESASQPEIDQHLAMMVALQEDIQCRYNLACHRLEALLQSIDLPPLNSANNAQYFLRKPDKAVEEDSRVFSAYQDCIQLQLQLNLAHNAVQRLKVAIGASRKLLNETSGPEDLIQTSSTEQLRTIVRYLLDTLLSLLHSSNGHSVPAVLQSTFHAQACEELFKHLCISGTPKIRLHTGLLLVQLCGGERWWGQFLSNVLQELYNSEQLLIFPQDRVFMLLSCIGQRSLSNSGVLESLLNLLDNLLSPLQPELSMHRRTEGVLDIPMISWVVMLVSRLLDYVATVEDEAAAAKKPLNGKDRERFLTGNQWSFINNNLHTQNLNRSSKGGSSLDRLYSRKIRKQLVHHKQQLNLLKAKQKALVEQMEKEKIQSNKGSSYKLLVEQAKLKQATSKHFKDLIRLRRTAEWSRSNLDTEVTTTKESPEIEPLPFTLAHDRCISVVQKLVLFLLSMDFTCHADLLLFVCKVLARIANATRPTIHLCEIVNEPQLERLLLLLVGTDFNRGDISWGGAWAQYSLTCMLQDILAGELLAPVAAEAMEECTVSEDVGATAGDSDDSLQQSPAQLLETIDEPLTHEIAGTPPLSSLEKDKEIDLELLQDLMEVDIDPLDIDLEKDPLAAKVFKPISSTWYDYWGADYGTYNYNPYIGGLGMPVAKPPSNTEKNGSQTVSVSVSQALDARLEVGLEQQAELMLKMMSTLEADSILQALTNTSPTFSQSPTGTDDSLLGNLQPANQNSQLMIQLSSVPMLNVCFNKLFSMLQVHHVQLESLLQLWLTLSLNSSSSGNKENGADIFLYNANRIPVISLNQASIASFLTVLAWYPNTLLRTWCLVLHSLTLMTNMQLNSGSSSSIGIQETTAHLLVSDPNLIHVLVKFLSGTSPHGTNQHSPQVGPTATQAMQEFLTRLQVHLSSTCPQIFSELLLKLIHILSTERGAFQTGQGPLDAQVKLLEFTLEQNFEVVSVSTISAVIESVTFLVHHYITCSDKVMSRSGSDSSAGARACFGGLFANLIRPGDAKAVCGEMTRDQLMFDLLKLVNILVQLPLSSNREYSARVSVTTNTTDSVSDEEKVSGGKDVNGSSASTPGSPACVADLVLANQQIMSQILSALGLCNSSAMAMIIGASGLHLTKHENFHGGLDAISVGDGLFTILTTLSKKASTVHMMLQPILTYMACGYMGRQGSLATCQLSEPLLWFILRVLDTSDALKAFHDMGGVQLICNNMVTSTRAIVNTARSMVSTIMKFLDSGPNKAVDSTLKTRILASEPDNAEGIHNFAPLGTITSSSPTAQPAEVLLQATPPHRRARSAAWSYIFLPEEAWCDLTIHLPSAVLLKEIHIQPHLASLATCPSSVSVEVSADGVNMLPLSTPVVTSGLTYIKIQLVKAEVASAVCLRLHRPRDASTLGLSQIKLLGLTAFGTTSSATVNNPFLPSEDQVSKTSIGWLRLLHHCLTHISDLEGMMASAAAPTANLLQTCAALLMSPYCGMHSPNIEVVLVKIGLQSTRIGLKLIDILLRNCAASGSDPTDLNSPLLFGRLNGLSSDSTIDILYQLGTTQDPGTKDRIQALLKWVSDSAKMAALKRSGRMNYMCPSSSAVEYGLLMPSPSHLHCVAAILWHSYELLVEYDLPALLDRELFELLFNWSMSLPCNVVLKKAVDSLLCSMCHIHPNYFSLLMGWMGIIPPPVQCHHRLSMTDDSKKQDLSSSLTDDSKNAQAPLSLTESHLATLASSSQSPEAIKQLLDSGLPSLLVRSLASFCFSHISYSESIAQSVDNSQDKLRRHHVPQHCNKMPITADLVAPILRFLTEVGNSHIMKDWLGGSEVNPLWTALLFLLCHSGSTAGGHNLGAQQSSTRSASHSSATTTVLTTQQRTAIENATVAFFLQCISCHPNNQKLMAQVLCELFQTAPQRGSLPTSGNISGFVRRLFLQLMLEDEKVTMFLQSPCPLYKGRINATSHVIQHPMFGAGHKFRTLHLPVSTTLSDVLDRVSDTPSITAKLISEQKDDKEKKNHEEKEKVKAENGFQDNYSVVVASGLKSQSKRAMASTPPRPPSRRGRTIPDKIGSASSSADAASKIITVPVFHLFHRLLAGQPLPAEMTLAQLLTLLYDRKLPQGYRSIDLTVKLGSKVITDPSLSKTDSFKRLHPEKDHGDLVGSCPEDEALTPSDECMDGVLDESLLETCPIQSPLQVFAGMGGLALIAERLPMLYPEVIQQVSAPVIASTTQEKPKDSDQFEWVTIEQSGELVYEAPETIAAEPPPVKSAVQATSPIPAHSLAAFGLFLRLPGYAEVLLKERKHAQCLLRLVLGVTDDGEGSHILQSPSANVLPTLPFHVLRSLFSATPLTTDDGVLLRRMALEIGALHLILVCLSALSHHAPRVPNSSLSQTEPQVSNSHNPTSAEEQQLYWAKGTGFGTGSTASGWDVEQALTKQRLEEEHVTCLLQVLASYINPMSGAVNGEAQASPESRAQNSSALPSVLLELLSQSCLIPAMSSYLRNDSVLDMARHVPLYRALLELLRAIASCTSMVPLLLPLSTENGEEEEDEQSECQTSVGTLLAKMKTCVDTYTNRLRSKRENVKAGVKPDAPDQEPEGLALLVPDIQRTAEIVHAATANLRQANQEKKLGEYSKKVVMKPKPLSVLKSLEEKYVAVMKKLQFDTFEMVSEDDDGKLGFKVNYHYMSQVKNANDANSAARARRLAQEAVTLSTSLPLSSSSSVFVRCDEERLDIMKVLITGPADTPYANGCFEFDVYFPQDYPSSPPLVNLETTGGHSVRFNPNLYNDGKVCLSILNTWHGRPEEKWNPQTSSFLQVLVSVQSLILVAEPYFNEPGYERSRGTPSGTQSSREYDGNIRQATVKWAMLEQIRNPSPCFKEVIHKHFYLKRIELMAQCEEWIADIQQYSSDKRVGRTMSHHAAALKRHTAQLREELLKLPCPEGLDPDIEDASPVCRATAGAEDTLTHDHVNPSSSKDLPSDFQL
# Compound: CN[C@@H]1C[C@H]2O[C@@](C)([C@@H]1OC)n1c3ccccc3c3c4c(c5c6ccccc6n2c5c31)C(=O)NC4 [staurosporine]
# Test: log2 fold change of tryptic peptide abundance, ligand vs vehicle (limited proteolysis) (log2 ratio); higher = more trypsin-susceptible (destabilized)
# Details: ligand concentration: 20 uM; sample: mouse liver crude lysate; replicate design: treated separately
row,Target,log2 fold change
1,"UniProt O35737 (peptide sequence: DLNYCFSGMSDHR, peptide start residue: 263)",-0.143
2,"UniProt O70378 (peptide sequence: FTMDCAAPTIHVYEQHENR, peptide start residue: 129)",-0.457
3,"UniProt O88696 (peptide sequence: KQLYNIYAK, peptide start residue: 199)",-0.298
4,"UniProt O88379 (peptide sequence: QSTESSPVPLNR, peptide start residue: 1411)",0.231
5,"UniProt O54788 (peptide sequence: LVHIACHK, peptide start residue: 302)",0.301
6,"UniProt O70258 (peptide sequence: DMQTPDIQLVHHSSIQK, peptide start residue: 350)",0.182
7,"UniProt O88738 (peptide sequence: LPGYAEVLLK, peptide start residue: 4191)",0.19
8,"UniProt O70492 (peptide sequence: GDDGIFDDNFIEERK, peptide start residue: 105)",0.289
